According to patent US20100068806A1, “NOVEL METHODS AND REAGENTS DIRECTED TO PRODUCTION OF CELLS” (SUOMEN PUNAINEN RISTI, VERIPALVELU, priority 2007, published 2010):

Tested on: glycoconjugates (N-glycans, O-glycans, glycosphingolipids) of hESC, EB, st.3, CB CD34+ & CD133+, CB MNC, BM & CB MSC, adipo/osteo cells
Assay: Summary of occurrence of terminal glycan epitopes in glycoconjugates of stem cells and differentiated cells (Table 28)
Design: species or system human
Details: prefix N = N-glycans

LacdiNAc
+/−: Occurrence of terminal epitope, BM & CB MSC (BM & CB MSC, O = O-glycans, L = glycosphingolipids) | Occurrence of terminal epitope, CB CD34+ & CD133+ (CB CD34+ & CD133+, O = O-glycans, L = glycosphingolipids) | Occurrence of terminal epitope, adipo/osteo (cells differentiated into adipocyte or osteoblast direction from MSC) | Occurrence of terminal epitope, st.3 (stage 3 differentiated cells, O = O-glycans, L = glycosphingolipids)
